Results: publication PMC12238573 (Nature Communications, 2025)
No constants are given. Whether binding was seen depends on the method and setting. For some assays here: Binding seen in cells or lysates may run through a third protein. Some binding calls cover weakened binding; strength is not graded here.

Tests used:
[1] = target: T1, PRPS1 (endogenous, mouse) (mouse (endogenous in NIH3T3 and C57BL/6 tissues)) (UniProt Q9D7G0); assay: SEC; native tissue lysates (liver, kidney, lung) of 12-week-old male C57BL/6 mice on Superose 6 Increase 3.2/300; fractions analysed by Western blot
T1 sequence: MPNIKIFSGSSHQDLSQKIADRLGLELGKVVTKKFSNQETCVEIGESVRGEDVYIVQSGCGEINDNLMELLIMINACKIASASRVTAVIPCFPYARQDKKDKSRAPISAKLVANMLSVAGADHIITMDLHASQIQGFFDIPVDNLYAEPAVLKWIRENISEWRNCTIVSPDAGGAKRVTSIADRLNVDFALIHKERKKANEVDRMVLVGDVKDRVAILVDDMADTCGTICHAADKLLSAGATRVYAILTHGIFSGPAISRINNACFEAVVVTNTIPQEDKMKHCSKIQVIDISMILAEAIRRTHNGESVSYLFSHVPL

[2] = target: T2, PRPS2 (endogenous, mouse) (mouse (endogenous in NIH3T3 and C57BL/6 tissues)) (UniProt Q9CS42); assay: as above
T2 sequence: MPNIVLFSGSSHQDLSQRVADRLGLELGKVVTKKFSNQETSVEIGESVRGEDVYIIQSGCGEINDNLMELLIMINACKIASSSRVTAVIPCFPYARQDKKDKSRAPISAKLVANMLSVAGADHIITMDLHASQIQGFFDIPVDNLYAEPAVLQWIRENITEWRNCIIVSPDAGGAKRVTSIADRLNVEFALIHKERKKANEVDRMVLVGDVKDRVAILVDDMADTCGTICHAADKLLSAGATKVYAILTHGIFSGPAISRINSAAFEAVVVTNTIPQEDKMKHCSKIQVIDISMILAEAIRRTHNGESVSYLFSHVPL

[3] = target: T3, PRPS1-mNG11-ALFA (endogenous knock-in) (mouse (endogenous in NIH3T3)) (UniProt Q9D7G0); assay: co-IP; ALFA-tag pulldown (anti-ALFA nanobody agarose) from lysate of NIH3T3 knock-in cells expressing PRPS1-ALFA from the endogenous locus; washes with 0.5 M NaCl, 0.5% Triton X-100
T3 sequence: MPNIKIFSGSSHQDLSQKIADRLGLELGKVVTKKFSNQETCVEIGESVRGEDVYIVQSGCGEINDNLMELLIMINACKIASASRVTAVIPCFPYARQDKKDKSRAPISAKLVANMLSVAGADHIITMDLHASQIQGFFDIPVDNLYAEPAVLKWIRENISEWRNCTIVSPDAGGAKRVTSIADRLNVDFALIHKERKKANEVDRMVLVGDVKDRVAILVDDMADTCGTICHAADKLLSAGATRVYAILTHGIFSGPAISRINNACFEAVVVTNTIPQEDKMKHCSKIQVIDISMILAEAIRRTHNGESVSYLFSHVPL

[4] = target: T1, PRPS1 (endogenous, mouse) (mouse (endogenous in NIH3T3 and C57BL/6 tissues)); assay: SEC; native whole-cell lysates of NIH3T3 CRISPR knockout lines (P2/AP1/AP2, P2/AP1, P1/AP2, P1, P2, AP2, AP1, AP1/AP2, P1/AP1 KO), some re-expressing PRPS2, AP1 or AP2 constructs, on Superose 6 Increase 3.2/300; fractions analysed by Western blot
[5] = target: T1, PRPS1 (endogenous, mouse) (mouse (endogenous in NIH3T3 and C57BL/6 tissues)); assay: SEC; native whole-cell lysates of parental NIH3T3 and HEK293T cells on Superose 6 Increase 3.2/300; fractions analysed by Western blot with internal size standards; digitonin lysis buffer pH 7.5, 200 mM NaCl
[6] = target: T2, PRPS2 (endogenous, mouse) (mouse (endogenous in NIH3T3 and C57BL/6 tissues)); assay: as above
[7] = target: T4, PRPS2 (endogenous, human) (human (endogenous in HEK293T)) (UniProt P11908); assay: as above
T4 sequence: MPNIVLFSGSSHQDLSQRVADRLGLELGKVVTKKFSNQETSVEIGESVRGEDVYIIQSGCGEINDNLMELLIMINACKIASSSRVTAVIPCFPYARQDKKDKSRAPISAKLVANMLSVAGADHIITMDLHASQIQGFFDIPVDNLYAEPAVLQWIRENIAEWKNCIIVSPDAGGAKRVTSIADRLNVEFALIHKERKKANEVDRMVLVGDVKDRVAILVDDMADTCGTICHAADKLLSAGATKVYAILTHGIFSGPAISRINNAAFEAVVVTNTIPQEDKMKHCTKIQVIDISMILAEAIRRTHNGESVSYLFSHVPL

[8] = target: T5, PRPS1 (endogenous, human) (human (endogenous in HEK293T)) (UniProt P60891); assay: as above
T5 sequence: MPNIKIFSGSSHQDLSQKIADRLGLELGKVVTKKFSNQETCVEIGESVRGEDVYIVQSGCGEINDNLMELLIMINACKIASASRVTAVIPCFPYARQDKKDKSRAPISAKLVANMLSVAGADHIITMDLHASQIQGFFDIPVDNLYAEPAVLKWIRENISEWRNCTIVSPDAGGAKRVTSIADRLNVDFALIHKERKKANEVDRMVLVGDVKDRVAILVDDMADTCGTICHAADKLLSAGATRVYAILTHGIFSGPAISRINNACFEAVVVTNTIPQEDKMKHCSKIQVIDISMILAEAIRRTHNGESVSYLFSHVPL

[9] = target: T6, PRPSAP2 (endogenous, human) (human (endogenous in HEK293T)) (UniProt O60256); assay: as above
T6 sequence: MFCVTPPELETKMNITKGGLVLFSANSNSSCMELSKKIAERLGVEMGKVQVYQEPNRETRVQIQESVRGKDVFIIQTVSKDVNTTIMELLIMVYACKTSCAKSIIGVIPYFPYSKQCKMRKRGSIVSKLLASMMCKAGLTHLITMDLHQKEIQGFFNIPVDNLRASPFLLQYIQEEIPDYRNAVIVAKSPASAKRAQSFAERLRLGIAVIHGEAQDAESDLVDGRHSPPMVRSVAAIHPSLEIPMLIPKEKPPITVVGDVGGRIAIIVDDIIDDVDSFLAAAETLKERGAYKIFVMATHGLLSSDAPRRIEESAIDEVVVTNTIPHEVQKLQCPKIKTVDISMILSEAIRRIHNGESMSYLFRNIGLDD

B1: PRPSAP2 (endogenous, mouse) (protein, UniProt Q8R574 1-369)
chain: MFCVAPPELETKMNITKGGLVLFSANSNSSCMELSKKIAERLGVEMGKVQVYQEPNRETRVQIQESVRGKDVFIIQTISKDVNTTIMELLIMVYACKTSCAKSIIGVIPYFPYSKQCKMRKRGSIVSKLLASMMCKAGLTHLITMDLHQKEIQGFFNIPVDNLRASPFLLQYIQEEIPDYRNAVIVAKSPASAKRAQSFAERLRLGIAVIHGEAQDAESDLVDGRHSPPMVRSVAAIHPSLEIPMLIPKEKPPITVVGDVGGRIAIIVDDIIDDVDSFLAAAETLKERGAYKIFVMATHGLLSSDAPRLIEESAIDEVVVTNTIPHEIQKLQCPKIKTVDISMILSEAIRRIHNGESMSYLFRNIGLDD
**Q.** With B1 as the binder, how does the binding [1] read?
**A.** binds

**Q.** And the binding [2]?
**A.** binds

**Q.** What about the binding [3] of the same binder?
**A.** binds

**Q.** What about the binding [4] of the same binder?
**A.** binds

**Q.** And the binding [5]?
**A.** binds

**Q.** And the binding [6]?
**A.** binds

B2: PRPSAP2 (endogenous, human) (protein, UniProt O60256-1 1-369)
chain: MFCVTPPELETKMNITKGGLVLFSANSNSSCMELSKKIAERLGVEMGKVQVYQEPNRETRVQIQESVRGKDVFIIQTVSKDVNTTIMELLIMVYACKTSCAKSIIGVIPYFPYSKQCKMRKRGSIVSKLLASMMCKAGLTHLITMDLHQKEIQGFFNIPVDNLRASPFLLQYIQEEIPDYRNAVIVAKSPASAKRAQSFAERLRLGIAVIHGEAQDAESDLVDGRHSPPMVRSVAAIHPSLEIPMLIPKEKPPITVVGDVGGRIAIIVDDIIDDVDSFLAAAETLKERGAYKIFVMATHGLLSSDAPRRIEESAIDEVVVTNTIPHEVQKLQCPKIKTVDISMILSEAIRRIHNGESMSYLFRNIGLDD
**Q.** B2 was tested. Which binding [7] did it give?
**A.** binds

B3: PRPS2 (endogenous, human) (enzyme, UniProt P11908-1 1-318)
chain: MPNIVLFSGSSHQDLSQRVADRLGLELGKVVTKKFSNQETSVEIGESVRGEDVYIIQSGCGEINDNLMELLIMINACKIASSSRVTAVIPCFPYARQDKKDKSRAPISAKLVANMLSVAGADHIITMDLHASQIQGFFDIPVDNLYAEPAVLQWIRENIAEWKNCIIVSPDAGGAKRVTSIADRLNVEFALIHKERKKANEVDRMVLVGDVKDRVAILVDDMADTCGTICHAADKLLSAGATKVYAILTHGIFSGPAISRINNAAFEAVVVTNTIPQEDKMKHCTKIQVIDISMILAEAIRRTHNGESVSYLFSHVPL
**Q.** With B3 as the binder, how does the binding [8] read?
**A.** binds

B4: exogenous PRPS2 (lentiviral PRPS2-ALFA) (enzyme, UniProt Q9CS42 1-318)
chain: MPNIVLFSGSSHQDLSQRVADRLGLELGKVVTKKFSNQETSVEIGESVRGEDVYIIQSGCGEINDNLMELLIMINACKIASSSRVTAVIPCFPYARQDKKDKSRAPISAKLVANMLSVAGADHIITMDLHASQIQGFFDIPVDNLYAEPAVLQWIRENITEWRNCIIVSPDAGGAKRVTSIADRLNVEFALIHKERKKANEVDRMVLVGDVKDRVAILVDDMADTCGTICHAADKLLSAGATKVYAILTHGIFSGPAISRINSAAFEAVVVTNTIPQEDKMKHCSKIQVIDISMILAEAIRRTHNGESVSYLFSHVPL
**Q.** Which binding [4] does the source give for B4 here?
**A.** binds

B5: PRPSAP1 (endogenous, human) (protein, UniProt Q14558 1-356)
chain: MNAARTGYRVFSANSTAACTELAKRITERLGAELGKSVVYQETNGETRVEIKESVRGQDIFIIQTIPRDVNTAVMELLIMAYALKTACARNIIGVIPYFPYSKQSKMRKRGSIVCKLLASMLAKAGLTHIITMDLHQKEIQGFFSFPVDNLRASPFLLQYIQEEIPNYRNAVIVAKSPDAAKRAQSYAERLRLGLAVIHGEAQCTELDMDDGRHSPPMVKNATVHPGLELPLMMAKEKPPITVVGDVGGRIAIIVDDIIDDVESFVAAAEILKERGAYKIYVMATHGILSAEAPRLIEESSVDEVVVTNTVPHEVQKLQCPKIKTVDISLILSEAIRRIHNGESMAYLFRNITVDD
**Q.** For B5, which binding [7] is on record?
**A.** binds

**Q.** What about the binding [9] of the same binder?
**A.** binds
